Experimental findings from paper PMC6856172 are described below.

The target in experiment [1] is MCL-1 (human (endogenous in A375M and GIST cells)), Q07820. Kind of experiment: co-IP; immunoprecipitation from lysates of KIT-mutant GIST cells treated with imatinib or vehicle; blots for NOXA and BIM (Supplementary Fig. 4a-c). The settings on record: remark: other sources report otherwise.
The target is the same in experiment [2]. Kind of experiment: co-IP; anti-MCL-1 antibody (mouse, BD #559027) on whole cell lysates of A375M cells in 0.5% CHAPS/HEPES buffer, 750 ug protein, overnight 4 °C, protein A or G magnetic beads; blots for NOXA and BIM; cells treated with vehicle, PLX4720 (1 uM) or dabrafenib (24 h). The settings on record: remark: other sources report otherwise.

These are yes or no findings as the source states them, for the method shown. In cells and extracts the contact can be indirect. Some entries that bind do so weakly or less than the wild type.

B1: NOXA, Q13794 1-54 (protein)
chain: MPGKKARKNAQPSPARAPAELEVECATQLRRFGDKLNFRQKLLNLISKLFCSGT
In the case of B1, the binding entry in experiment [1] and in experiment [2] was “binds” each time.
